The supplement of paper PMC9744312
Structures can show the parent of a compound that is named as a salt. This is one part of the list. The data scatter; read single values as rough.

Test system: Peyronie's disease tunica albuginea primary fibroblasts
Assay: cell viability (DRAQ5 nuclear stain) relative to TGF-beta1-only control; higher = more viable cells
Conditions: 10 µM; TGF-beta1 10 ng/mL; 72 h

SMILES | cell viability [%]
CN[C@@H]1[C@H](O[C@H]2[C@H](O[C@H]3[C@H](O)[C@@H](O)[C@H](N=C(N)N)[C@@H](O)[C@@H]3N=C(N)N)O[C@@H](C)[C@]2(O)C=O)O[C@@H](CO)[C@H](O)[C@H]1O [Streptomycin sulfate] | 85.7
Nc1nc(Cl)nc2c1ncn2[C@H]1C[C@H](O)[C@@H](CO)O1 [Cladribine] | 69
OCCOCCN1CCN(C2=Nc3ccccc3Sc3ccccc32)CC1 [Quetiapine Fumarate] | 89.2
CC1(C)S[C@@H]2[C@H](NC(=O)[C@H](N)c3ccc(O)cc3)C(=O)N2[C@H]1C(=O)O [Amoxicillin trihydrate] | 87.5
CC1(C)S[C@@H]2[C@H](NC(=O)[C@H](N)c3ccc(O)cc3)C(=O)N2[C@H]1C(=O)O [Amoxicillin Sodium] | 90.2
CC1(C)S[C@@H]2[C@H](NC(=O)[C@H](N)c3ccc(O)cc3)C(=O)N2[C@H]1C(=O)O [Amoxicillin] | 86.9
CCC(=O)O[C@@H](O[P@](=O)(CCCCc1ccccc1)CC(=O)N1C[C@H](C2CCCCC2)C[C@H]1C(=O)O)C(C)C [Fosinopril Sodium] | 84.6
CCCCC(=O)O[C@H]1CC[C@H]2[C@@H]3CCc4cc(O)ccc4[C@H]3CC[C@]12C [Estradiol valerate] | 99.7
O=C(OC[C@H]1O[C@@H](OC(=O)c2cc(O)c(O)c(OC(=O)c3cc(O)c(O)c(O)c3)c2)[C@H](OC(=O)c2cc(O)c(O)c(OC(=O)c3cc(O)c(O)c(O)c3)c2)[C@@H](OC(=O)c2cc(O)c(O)c(OC(=O)c3cc(O)c(O)c(O)c3)c2)[C@@H]1OC(=O)c1cc(O)c(O)c(OC(=O)c2cc(O)c(O)c(O)c2)c1)c1cc(O)c(O)c(OC(=O)c2cc(O)c(O)c(O)c2)c1 [Tannic acid] | 77.6
N=C(N)c1ccc(OCCCCCOc2ccc(C(=N)N)cc2)cc1 [Pentamidine isethionate] | 83.4
Fc1ccc(C(c2ccc(F)cc2)N2CCN(C/C=C/c3ccccc3)CC2)cc1 [Flunarizine 2HCl] | 92.3
Cc1oncc1C(=O)Nc1ccc(C(F)(F)F)cc1 [Leflunomide] | 95.4
COc1ccc(C(Cl)=C(c2ccc(OC)cc2)c2ccc(OC)cc2)cc1 [Chlorotrianisene] | 83.4
O=C(O)c1cccnc1Nc1cccc(C(F)(F)F)c1 [Niflumic acid] | 90
CC1CC(OC(=O)C(O)c2ccccc2)CC(C)(C)C1 (stereo unspecified) [Cyclandelate] | 81.8
CC(CCc1ccccc1)NCC(O)c1ccc(O)c(C(N)=O)c1 (stereo unspecified) [Labetalol HCl] | 84.5
CCOC(=O)[C@H](CCc1ccccc1)N[C@@H](C)C(=O)N1Cc2ccccc2C[C@H]1C(=O)O [Quinapril HCl] | 98.5
Cc1cn([C@H]2O[C@@H](CO)[C@H](O)[C@H]2F)c(=O)[nH]c1=O [Clevudine] | 96
Cc1onc(-c2c(Cl)cccc2Cl)c1C(=O)N[C@@H]1C(=O)N2[C@@H]1SC(C)(C)[C@@H]2C(=O)O [Dicloxacillin Sodium] | 77.4
CN1C(C)(C)CCCC1(C)C [Pempidine] | 93.4
C[N+](C)(C)CCCCCC[N+](C)(C)C [Hexamethonium?Dibromide] | 99
O=c1ccc2ccc(OCCCCN3CCN(c4cccc5sccc45)CC3)cc2[nH]1 [Brexpiprazole] | 88.3

As entered above:
In cell viability [%], Cc1cn([C@H]2O[C@@H](CO)[C@H](O)[C@H]2F)c(=O)[nH]c1=O [Clevudine] has the entry 96
In cell viability [%], CN[C@@H]1[C@H](O[C@H]2[C@H](O[C@H]3[C@H](O)[C@@H](O)[C@H](N=C(N)N)[C@@H](O)[C@@H]3N=C(N)N)O[C@@H](C)[C@]2(O)C=O)O[C@@H](CO)[C@H](O)[C@H]1O [Streptomycin sulfate] has the entry 85.7

Next entries:

SMILES | cell viability [%]
CN(C)/N=N/c1[nH]cnc1C(N)=O [Dacarbazine] | 101
Cc1cc2c(cc1S(N)(=O)=O)S(=O)(=O)CCC2 [Meticrane] | 60.9
CC(C)OC(=O)[C@H](C)N[P@](=O)(OC[C@H]1O[C@@H](n2ccc(=O)[nH]c2=O)[C@](C)(F)[C@@H]1O)Oc1ccccc1 [Sofosbuvir (PSI-7977, GS-7977)] | 86.5
CC1(C)S[C@@H]2[C@H](NC(=O)[C@H](NC(=O)N3CCNC3=O)c3ccccc3)C(=O)N2[C@H]1C(=O)O [Azlocillin sodium salt] | 96.5
CC(C)c1ccc2oc3nc(N)c(C(=O)O)cc3c(=O)c2c1 [Amlexanox] | 89.7
COC(=O)Nc1nc2cc(C(=O)c3ccccc3)ccc2[nH]1 [Mebendazole] | 62.2
CC(=O)Nc1ccccc1 [Acetanilide] | 92.8
CC(C)(C)C(=O)Oc1ccc(S(=O)(=O)Nc2ccccc2C(=O)NCC(=O)O)cc1 [Sivelestat (ONO-5046)] | 94.9
CC(C)(C)C(=O)Oc1ccc(S(=O)(=O)Nc2ccccc2C(=O)NCC(=O)O)cc1 [Sivelestat sodium tetrahydrate] | 93.5
CC(C(=O)O)c1ccc2c(c1)Cc1cccnc1O2 (stereo unspecified) [Pranoprofen] | 91.3
C[C@H]1COc2c(C3(N)CC3)c(F)cc3c(=O)c(C(=O)O)cn1c23 [Pazufloxacin mesylate] | 93.6
C[N+]1(C)[C@@H]2CC[C@H]1C[C@@H](OC(=O)C(O)c1ccccc1)C2 (stereo partly specified) [Homatropine Methylbromide] | 68.8
Cc1ccccc1-c1cc(N2CCN(C)CC2)ncc1N(C)C(=O)C(C)(C)c1cc(C(F)(F)F)cc(C(F)(F)F)c1 [Netupitant] | 94.1
Cc1c(C)c2c(c(C)c1O)CCC(C)(COc1ccc(CC3SC(=O)NC3=O)cc1)O2 (stereo unspecified) [Troglitazone (CS-045)] | 89.8
COC(=O)C1=C(C)NC(C)=C(C(=O)OCCN2CCN(C(c3ccccc3)c3ccccc3)CC2)C1c1cccc([N+](=O)[O-])c1 (stereo unspecified) [Manidipine 2HCl] | 85.9
COC(=O)C1=C(C)NC(C)=C(C(=O)OCCN2CCN(C(c3ccccc3)c3ccccc3)CC2)C1c1cccc([N+](=O)[O-])c1 (stereo unspecified) [Manidipine] | 87.3
COC(c1ccccc1)(c1ccccc1)[C@H](Oc1nc(C)cc(C)n1)C(=O)O [Ambrisentan] | 93.8
CC(C)(C(=O)O)c1ccc(C(O)CCCN2CCC(C(O)(c3ccccc3)c3ccccc3)CC2)cc1 (stereo unspecified) [Fexofenadine HCl] | 97.8
CN(C)CCCN1c2ccccc2Sc2ccccc21 [Promazine hydrochloride] | 84.9
CC(=O)O[C@]1(C(C)=O)CC[C@H]2[C@@H]3C[C@H](C)C4=CC(=O)C=C[C@]4(C)[C@@]3(F)[C@@H](O)C[C@@]21C [Fluorometholone Acetate] | 66.7
O=C[C@H](O)[C@@H](O)[C@H](O)CO [Xylose] | 87.7
OC(c1ccccc1)(c1ccccc1)C12CC[N+](CCOCc3ccccc3)(CC1)CC2 [Umeclidinium bromide] | 98.4

SMILES | cell viability [%]
Cc1ncc(CO)c(CO)c1O [Pyridoxine HCl] | 81.7
Cc1ncc(CO)c(CO)c1O [Pyridoxine] | 91.6
C#Cc1cccc(Nc2ncnc3cc4c(cc23)OCCOCCOCCO4)c1 [Icotinib] | 83.3
C=CC(=O)Nc1cc(Nc2nccc(-c3cn(C)c4ccccc34)n2)c(OC)cc1N(C)CCN(C)C [Osimertinib (AZD9291)] | 61.9
CCc1c(C)[nH]c2c1C(=O)C(CN1CCOCC1)CC2 (stereo unspecified) [Molindone hydrochloride] | 93.4
N[C@@H](CCC(=O)N[C@@H](CS)C(=O)NCC(=O)O)C(=O)O [Glutathione] | 90.8
CC1=C(C(=O)O)N2C(=O)[C@@H](NC(=O)[C@H](N)C3=CCC=CC3)[C@H]2SC1 [Cephradine monohydrate] | 81
CC1=C(C(=O)O)N2C(=O)[C@@H](NC(=O)[C@H](N)C3=CCC=CC3)[C@H]2SC1 [Cefradine] | 88.1
CC1=C(/C=C/C(C)=C/C=C/C(C)=C/C(=O)O)C(C)(C)CCC1 [Tretinoin] | 78.8
C[C@]12CC[C@H](O)CC1=CC[C@@H]1[C@@H]2CC[C@]2(C)C(n3cnc4ccccc43)=CC[C@@H]12 [Galeterone] | 99.6
CNC(=O)CN(CCN(CCN(CC(=O)[O-])CC(=O)NC)CC(=O)[O-])CC(=O)[O-].O.[Gd+3] [Gadodiamide Hydrate] | 100
CNS(=O)(=O)CCc1ccc2[nH]cc(C3CCN(C)CC3)c2c1 [Naratriptan HCl] | 88
CC(=O)Oc1ccccc1C(=O)O [Aspirin] | 90
N=C(N)NS(=O)(=O)c1ccc(N)cc1 [Sulfaguanidine] | 96.8
O=C(Nc1nc2cccc(-c3ccc(CN4CCS(=O)(=O)CC4)cc3)n2n1)C1CC1 [Filgotinib (GLPG0634)] | 99.3
CCCCc1nc2cc(/C=C/C(=O)NO)ccc2n1CCN(CC)CC [Pracinostat (SB939)] | 40
COc1cc2nc(N(C)CCCNC(=O)C3CCCO3)nc(N)c2cc1OC (stereo unspecified) [Alfuzosin HCl] | 101
CCCCCOc1ccc(-c2cc(-c3ccc(C(=O)N[C@H]4C[C@@H](O)[C@@H](O)NC(=O)[C@@H]5[C@@H](O)[C@@H](C)CN5C(=O)[C@H]([C@H](O)CC(N)=O)NC(=O)[C@H]([C@H](O)[C@@H](O)c5ccc(O)c(OS(=O)(=O)O)c5)NC(=O)[C@@H]5C[C@@H](O)CN5C(=O)[C@H]([C@@H](C)O)NC4=O)cc3)no2)cc1 [Micafungin Sodium] | 93.3
CC#CC(=O)N1CCC[C@H]1c1nc(-c2ccc(C(=O)Nc3ccccn3)cc2)c2c(N)nccn12 [Acalabrutinib (ACP-196)] | 93.8
N[C@@H](Cc1c[nH]c2ccc(O)cc12)C(=O)O [5-hydroxytryptophan (5-HTP)] | 97.9
CN1C[C@@H]2C[C@H]1CN2c1cc2c(cc1F)c(=O)c(C(=O)O)cn2C1CC1 [Danofloxacin Mesylate] | 84.2
N=C(N)Nc1ccc(C(=O)Oc2ccc3cc(C(=N)N)ccc3c2)cc1 [Nafamostat Mesylate] | 96.6
